# “And” between values parts separate entries of the source, which are not always exact repeats. Identical values can stand only once. Counter-ions that a name gives are not always drawn. ± gives the standard deviation of the averaged measurements. The list shows a part of the results. Part of the spread comes from offsets between plates or batches.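 Assay uses culture-activated primary human stellate myofibroblasts; lipid droplet recovery indicates inactivation. Measured: proportion of Hoechst-counted cells over a plate-specific Bodipy cutoff, duplicate wells, DMSO and nortriptyline as per-plate negative and positive controls. A hit scores, control-normalized, above the plate's top-tenth-percentile nortriptyline wells or ranks among its three best wells. Final well concentrations not reported.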
# Test system: primary human hepatic stellate cells (donor 1)
# Assay: percent Bodipy-positive cells; higher = more lipid droplet accumulation
# Settings: 48 h
# Experimental: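 Primary lipid accumulation screen in primary human hepatic stellate cell myofibroblasts (donor 1, passage 8) in 384-well plates. 100 nL of library compound was pin-transferred into 30 µL medium in duplicate, and cells were treated for 48 h. The 'Scaled' score combines distance from plate baseline, toxicity and reproducibility penalties, and is normalised to nortriptyline (positive) and DMSO (negative) controls on each plate. A hit is defined as scaled >0.85 or among the top 3 wells per plate.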
# [1] = library stock concentration: 3.33 mM
# [2] = library stock concentration: 10 mM
# [3] = library stock concentration: 80 uM
# [4] = library stock concentration: 400 uM
# [5] = library stock concentration: 2 mM
# [6] = library stock concentration: 1 mM
smiles,measurement,setting,value
Nc1ccccc1NC(=O)c1ccc(CNc2nccc(-c3cccnc3)n2)cc1 [Mocetinostat (MGCD0103)],percent Bodipy-positive cells,[1],69.5 ± 3.4%
CC1/C=C/C=C/C=C/C=C/C=C/C=C/C=C/C(OC2O[C@H](C)[C@@H](O)[C@H](N)[C@@H]2O)CC(O)C(C(=O)O)C(O)CC(=O)CC(O)CC(O)CC(O)CC(=O)CCCC(=O)CC(=O)OC1C(C)CC(C)C(O)CC(=O)c1ccc(N)cc1 (stereo partly specified),percent Bodipy-positive cells,[2],42.6 ± 14%
CCC1(O)CC2CN(CCc3c([nH]c4ccccc34)[C@@](C(=O)OC)(c3cc4c(cc3OC)N(C)C3[C@]45CCN4CC=C[C@@](CC)([C@@H](OC(C)=O)[C@]3(O)C(=O)OC)[C@H]45)C2)C1.O=S(=O)(O)O (stereo partly specified) [Vinblastine sulfate salt],percent Bodipy-positive cells,[2],99.81 ± 0.27%
CCOC(=O)c1cnc2c(cnn2CC)c1NN=C(C)C [Etazolate],percent Bodipy-positive cells,library stock concentration: 6.9 mM,7.96 ± 1.4%
C[C@@H]1C[C@H]2[C@@H]3CCC4=CC(=O)C=C[C@]4(C)[C@@]3(Cl)[C@@H](O)C[C@]2(C)[C@@]1(OC(=O)c1ccco1)C(=O)CCl [Mometasone furoate],percent Bodipy-positive cells,,37.23 ± 0.32%
same,percent Bodipy-positive cells,[1],18.7 ± 3.2%
same,percent Bodipy-positive cells,[2],70.8 ± 0.8%
CCOC(=O)[C@H](CCc1ccccc1)N[C@@H](C)C(=O)N1C(=O)N(C)C[C@H]1C(=O)O [Imidapril HCl],percent Bodipy-positive cells,[1],9.62 ± 3.9%
same,percent Bodipy-positive cells,[2],23.2 ± 9.2%
c1coc(CNc2ncnc3[nH]cnc23)c1 [Kinetin],percent Bodipy-positive cells,[1],9.601 ± 0.059%
same,percent Bodipy-positive cells,[2],21.3% and 19.9%
CN1CCN(CCCN2c3ccccc3Sc3ccc(C(F)(F)F)cc32)CC1.Cl.Cl [Trifluoperazine],percent Bodipy-positive cells,library stock concentration: 10.4 mM,90.2 ± 2.3%
C[C@]12CCC3=C4CCC(=O)C=C4CC[C@H]3[C@@H]1CC[C@@]2(O)CC#N [Dienogest],percent Bodipy-positive cells,[1],12.9 ± 6.4%
same,percent Bodipy-positive cells,[2],18.4 ± 3.9%
S=c1[nH]c(-c2ccccc2)cn1-c1ccccc1,percent Bodipy-positive cells,[2],35.4 ± 5.6%
CCOc1ccc2nc(S(N)(=O)=O)sc2c1 [Ethoxzolamide],percent Bodipy-positive cells,library stock concentration: 7.7 mM,11.5 ± 11%
Nc1ncnc2c1ncn2C1OC(COP(=O)(O)O)C(O)C1O (stereo unspecified) [Adenosine 5'-monophosphate monohydrate],percent Bodipy-positive cells,,34.8 ± 1.1%
CCN(CC)CCOc1ccc2c(c1)C(=O)c1cc(OCCN(CC)CC)ccc1-2 [Tilorone],percent Bodipy-positive cells,[2],91.81 ± 0.37%
COc1cc2ncnc(-n3nc(-c4ccccn4)nc3N)c2cc1OC,percent Bodipy-positive cells,[3],11.2 ± 5.4%
same,percent Bodipy-positive cells,[4],20.7 ± 6.4%
same,percent Bodipy-positive cells,[5],18.5 ± 0.75%
same,percent Bodipy-positive cells,[2],14.5 ± 0.84%
COc1cc(/C=C/c2ccc(Cl)cc2)cc(OC)c1,percent Bodipy-positive cells,[6],11.1 ± 2.5%
CCCCCCCC/C=C/CCCCCCCC(=O)O [Elaidic Acid],percent Bodipy-positive cells,[6],7.71 ± 1.9%
O=C(O)c1cc(/N=N/c2ccc(S(=O)(=O)Nc3ccccn3)cc2)ccc1O [Sulfasalazine],percent Bodipy-positive cells,,23.8 ± 8.7%
same,percent Bodipy-positive cells,[1],14.5 ± 14%
same,percent Bodipy-positive cells,library stock concentration: 5 mM,7.25% and 16.2%
same,percent Bodipy-positive cells,[2],11.4% and 17.9%
O=C(O)c1cc(/N=N/c2ccc(S(=O)(=O)Nc3ccccn3)cc2)ccc1O,percent Bodipy-positive cells,[2],3.67 ± 1.3%
C1[C@@H](N(C)[C@@H]2C1)C[C@@H](OC(c3ccccc3)c4ccccc4)C2.CS(O)(=O)=O (stereo partly specified) [Benztropine mesylate],percent Bodipy-positive cells,[2],91.2 ± 4.3%
C=C1c2cccc(O)c2C(O)=C2C(=O)[C@]3(O)C(O)=C(C(N)=O)C(=O)[C@@H](N(C)C)[C@@H]3[C@@H](O)[C@H]12 [Methacycline HCl],percent Bodipy-positive cells,[1],6.655 ± 0.017%
same,percent Bodipy-positive cells,[2],9.617 ± 0.066%
CCCCC[C@H](O)/C=C/[C@H]1[C@H](O)CC(=O)[C@@H]1C/C=C\CCCC(=O)OCC(O)CO (stereo partly specified) [Prostaglandin E2-1-glyceryl ester],percent Bodipy-positive cells,[6],11.1 ± 1.2%
O=C(O)c1cc2cc(Cc3cccnc3)ccc2o1 [Furegrelate (sodium salt)],percent Bodipy-positive cells,[6],8.96 ± 1.3%
COC(=O)C[C@](O)(CCCC(C)(C)O)C(=O)O[C@@H]1C(OC)=C[C@]23CCCN2CCc2cc4c(cc2[C@H]13)OCO4 [Homoharringtonine],percent Bodipy-positive cells,[2],88.3 ± 2.8%
NC(=O)c1ccc(I)c([N+](=O)[O-])c1 [Iniparib (BSI-201)],percent Bodipy-positive cells,[1],7.5 ± 0.1%
same,percent Bodipy-positive cells,[2],15.6 ± 7.1%
NC(=O)c1ccc(I)c([N+](=O)[O-])c1 [Iniparib],percent Bodipy-positive cells,[3],37.2 ± 0.52%
same,percent Bodipy-positive cells,[4],52.2 ± 1.5%
same,percent Bodipy-positive cells,[5],36.2 ± 12%
same,percent Bodipy-positive cells,[2],39.2 ± 8.3%
O=C(O)c1cc(N(Cc2ccccc2O)Cc2cc(O)ccc2O)ccc1O [Lavendustin A],percent Bodipy-positive cells,library stock concentration: 13.1 mM,10.7 ± 3.6%
COc1ccc(C2=N[C@@H](c3ccc(Cl)cc3)[C@@H](c3ccc(Cl)cc3)N2C(=O)N2CCNC(=O)C2)c(OC(C)C)c1,percent Bodipy-positive cells,[6],21.8 ± 11%
COc1ccc(C2=N[C@@H](c3ccc(Cl)cc3)[C@@H](c3ccc(Cl)cc3)N2C(=O)N2CCNC(=O)C2)c(OC(C)C)c1 [Nutlin-3],percent Bodipy-positive cells,[1],23.1 ± 3.1%
same,percent Bodipy-positive cells,[2],73.3 ± 7.5%
CN/C(=N\CCSCc1nc[nH]c1C)NC#N [Cimetidine],percent Bodipy-positive cells,,26.1 ± 0.43%
same,percent Bodipy-positive cells,[1],7.36 ± 1.4%
same,percent Bodipy-positive cells,library stock concentration: 7.9 mM,11.1% and 13.7%
"c1ccc(C2CN3CCSC3=N2)cc1 (single isomer, unassigned; (-)) [(-)-Tetramisole hydrochloride]",percent Bodipy-positive cells,[2],36.5 ± 4.1%
C=CC(=O)Nc1cc2c(Nc3ccc(F)c(Cl)c3)ncnc2cc1OCCCN1CCOCC1,percent Bodipy-positive cells,[2],79.4 ± 8.4%
CCc1cccc(CC)c1NC(=O)CN(CC(=O)O)CC(=O)O [Etifenin],percent Bodipy-positive cells,,40.3 ± 7.2%
OC1CCC(Nc2ncc3nc(Nc4c(F)cc(F)cc4F)n([C@@H]4CCOC4)c3n2)CC1 (stereo partly specified),percent Bodipy-positive cells,[3],8.64 ± 3.5%
same,percent Bodipy-positive cells,[4],8.44 ± 1.9%
same,percent Bodipy-positive cells,[5],5.76 ± 0.66%
same,percent Bodipy-positive cells,[2],7.27 ± 0.89%
CC1CCN=C(N)S1 (stereo unspecified),percent Bodipy-positive cells,[2],38.6 ± 5.3%
CC1CCN=C(N)S1 (stereo unspecified) [AMT hydrochloride],percent Bodipy-positive cells,[2],5.22 ± 1.6%
N#C/C(=C\c1ccc(O)c(O)c1)C(=O)NCCCc1ccccc1,percent Bodipy-positive cells,[2],10.5 ± 3.7%
CCCCCCCCCCCCCCCC(=O)O [Palmitic Acid],percent Bodipy-positive cells,[6],11.4 ± 0.49%
C/C(=C\C(=O)OCCCCCCCCC(=O)O)C[C@@H]1OC[C@H](C[C@@H]2O[C@H]2[C@@H](C)[C@H](C)O)[C@@H](O)[C@H]1O [Mupirocin],percent Bodipy-positive cells,[1],11.2 ± 2.5%
same,percent Bodipy-positive cells,[2],37.7% and 27.4%

# Reference: the supplement of paper PMC9135407
